# Literature values in patent publication US20110306608A1, “COMPOSITIONS AND METHODS FOR TREATING VASCULAR, AUTOIMMUNE AND INFLAMMATORY DISEASES” (priority 2005, published 2011).
# At least one structure is not confirmed: it was looked up by name or label, or the drawing left a doubt.
# Key:
# [1] = test system: monocyte expression of TNF-α and IL-1β; details: therapy for 8 weeks; cited from earlier work
# LdIr−/− male mice = details: mouse, in vivo; cited from earlier work
# [2] = test system: endothelial nitric oxide synthase (eNOS) expression; details: in vitro, cholesterol clamped conditions; cited from earlier work
compound,measurement,setting,value
CCC(C)(C)C(=O)O[C@H]1C[C@@H](C)C=C2C=C[C@H](C)[C@H](CC[C@@H]3C[C@@H](O)CC(=O)O3)[C@H]21 [simvastatin],reduction of monocyte expression of IL-1β,[1],35%
same,reduction of monocyte expression of TNF-α,[1],49%
same,effect on atherosclerosis (AS),LdIr−/− male mice,can decrease AS
same,effect on triglyceride levels,LdIr−/− male mice,no observed effect
same,upregulation of eNOS expression,[2],almost fourfold
